At least one structure is not confirmed: it was looked up by name or label, or the drawing left a doubt.
Experiment: Dynamic Vapor Sorption (DVS), two sorption-desorption cycles 0-95-0% RH
Assay type: physicochemical
Method: Approximately 2-16 mg of the sample was weighed into a metal receptacle, which was then released of static electricity. The metal receptacle was positioned in a Surface Measurements System Ltd DVS Advantage instrument. The sample was subjected to two consecutive sorption-desorption cycles, each running from 0-95-0% relative humidity (% RH). One cycle consisted of 21 steps, those between 0-90% RH were taken in 10% RH each. At each stage the following equilibrium criteria was used: dm/dt over 5 minutes <0,002% and the minimum and maximum time at each stage were 10 and 360 min respectively.

For `CCCCC1(CCCC)CN(c2ccccc2)c2cc(SC)c(OCC(=O)N[C@@H](C(=O)NCC(=O)O)c3ccccc3)cc2S(=O)(=O)C1` [crystal modification N, N-{(2R)-2-[({[3,3-dibutyl-7-(methylthio)-1,1-dioxido-5-phenyl-2,3,4,5-tetrahydro-1,5-benzothiazepin-8-yl]oxy}acetyl)amino]-2-phenylethanolyl}-glycine], the “reverse phase transition dihydrate to anhydrate, change in moisture (desorption curves)” value was 20-10.
